{"source": "patent US20050064382A1", "about": "“Method of prevention of lysosomal leakage in eukaryotic cells by using 6-methyluracil based water-soluble compounds and method of producing thereof” (priority 2002, published 2005)", "system": "Baltic sprats (small herring)", "test": "Maturation (proteolytic decay) of salted fish in storage", "details": "6 degrees C.", "data": [{"substance": "complex of 2,4-dihydroxy-6-methylpyrimidine with N-methyl-D-glucamine [Glucural]", "values": [{"measurement": "maturation of salted fish delayed by", "setting": "another of 5 concentrations (5-100 mg/kg of fish)", "value": 7.5, "unit": "months"}, {"measurement": "maturation of salted fish retarded to", "setting": "one of 5 concentrations (5-100 mg/kg of fish)", "value": 5, "unit": "months"}]}]}
